Results are given in words; binding and its absence hold for the method and conditions named. In cells and extracts the contact can be indirect. Binding calls can cover weak binding; strength is not graded here. Sequences can lack the tags named with a protein.
Tests used:
Experiment in all cases: co-IP; anti-myc immunoprecipitation of RIPA lysates of co-transfected 293T cells; immunoblot with anti-V5 and anti-myc
[1] = target: ORF20B 1-220-myc (Kaposi's sarcoma-associated herpesvirus (KSHV))
[2] = target: ORF20B 1-235-myc (Kaposi's sarcoma-associated herpesvirus (KSHV))
[3] = target: ORF20B 1-186-myc (Kaposi's sarcoma-associated herpesvirus (KSHV))

Measured: binding

B1: human OASL-V5 WT (protein, UniProt Q15646 1-514)
chain: MALMQELYSTPASRLDSFVAQWLQPHREWKEEVLDAVRTVEEFLRQEHFQGKRGLDQDVRVLKVVKVGSFGNGTVLRSTREVELVAFLSCFHSFQEAAKHHKDVLRLIWKTMWQSQDLLDLGLEDLRMEQRVPDALVFTIQTRGTAEPITVTIVPAYRALGPSLPNSQPPPEVYVSLIKACGGPGNFCPSFSELQRNFVKHRPTKLKSLLRLVKHWYQQYVKARSPRANLPPLYALELLTIYAWEMGTEEDENFMLDEGFTTVMDLLLEYEVICIYWTKYYTLHNAIIEDCVRKQLKKERPIILDPADPTLNVAEGYRWDIVAQRASQCLKQDCCYDNRENPISSWNVKRARDIHLTVEQRGYPDFNLIVNPYEPIRKVKEKIRRTRGYSGLQRLSFQVPGSERQLLSSRCSLAKYGIFSHTHIYLLETIPSEIQVFVKNPDGGSYAYAINPNSFILGLKQQIEDQQGLPKKQQQLEFQGQVLQDWLGLGIYGIQDSDTLILSKKKGEALFPAS
binds: [1] | [2] | [3]
